# Source: article PMC8384837
# Where a chain is given by its changes, count along the chain named. Some of the results follow.
# Assays:
# Settings in all cases: yeast three-hybrid, YBZ-1, SC-Leu-His + 0.5 mM 3-AT, 4 days
# [1] = target: T1, PUM1 PUF domain R3-APL C935A + R936P + Q939L (Homo sapiens) (UniProt Q14671)
# T1 sequence: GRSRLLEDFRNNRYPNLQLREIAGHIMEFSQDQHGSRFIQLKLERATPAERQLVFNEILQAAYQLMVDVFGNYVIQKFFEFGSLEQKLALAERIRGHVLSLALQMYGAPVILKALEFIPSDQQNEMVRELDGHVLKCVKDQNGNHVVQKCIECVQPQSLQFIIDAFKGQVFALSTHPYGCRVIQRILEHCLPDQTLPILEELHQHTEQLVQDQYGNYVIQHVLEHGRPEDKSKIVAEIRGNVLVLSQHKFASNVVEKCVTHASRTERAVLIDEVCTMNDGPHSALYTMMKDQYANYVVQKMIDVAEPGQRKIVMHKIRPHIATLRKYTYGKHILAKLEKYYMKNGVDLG
# [2] = target: T2, PUM1 PUF domain R3-ARD C935A + Q939D (Homo sapiens) (UniProt Q14671)
# T2 sequence: T1 sequence with P109R, L112D
# [3] = target: T3, PUM1 PUF domain R3-CRA Q939A (Homo sapiens) (UniProt Q14671)
# T3 sequence: T1 sequence with A108C, P109R, L112A
# [4] = target: T4, PUM1 PUF domain R3-CRH Q939H (Homo sapiens) (UniProt Q14671)
# T4 sequence: T1 sequence with A108C, P109R, L112H
# [5] = target: T5, PUM1 PUF domain R3-GCF C935G + R936C + Q939F (Homo sapiens) (UniProt Q14671)
# T5 sequence: T1 sequence with A108G, P109C, L112F
# [6] = target: T6, PUM1 PUF domain R3-GRG C935G + Q939G (Homo sapiens) (UniProt Q14671)
# T6 sequence: T1 sequence with A108G, P109R, L112G
# [7] = target: T7, PUM1 PUF domain R3-GRH C935G + Q939H (Homo sapiens) (UniProt Q14671)
# T7 sequence: T1 sequence with A108G, P109R, L112H
# [8] = target: T8, PUM1 PUF domain R3-GWF C935G + R936W + Q939F (Homo sapiens) (UniProt Q14671)
# T8 sequence: T1 sequence with A108G, P109W, L112F
# [9] = target: T9, PUM1 PUF domain R3-GWM C935G + R936W + Q939M (Homo sapiens) (UniProt Q14671)
# T9 sequence: T1 sequence with A108G, P109W, L112M
# [10] = target: T10, PUM1 PUF domain R3-LFL C935L + R936F + Q939L (Homo sapiens) (UniProt Q14671)
# T10 sequence: T1 sequence with A108L, P109F
# [11] = target: T11, PUM1 PUF domain R3-LRM C935L + Q939M (Homo sapiens) (UniProt Q14671)
# T11 sequence: T1 sequence with A108L, P109R, L112M
# [12] = target: T12, PUM1 PUF domain R3-NSL C935N + R936S + Q939L (Homo sapiens) (UniProt Q14671)
# T12 sequence: T1 sequence with A108N, P109S
# [13] = target: T13, PUM1 PUF domain R3-SPW C935S + R936P + Q939W (Homo sapiens) (UniProt Q14671)
# T13 sequence: T1 sequence with A108S, L112W
# [14] = target: T14, PUM1 PUF domain R3-SRG C935S + Q939G (Homo sapiens) (UniProt Q14671)
# T14 sequence: T1 sequence with A108S, P109R, L112G
# [15] = target: T15, PUM1 PUF domain R3-SSQ C935S + R936S (Homo sapiens) (UniProt Q14671)
# T15 sequence: T1 sequence with A108S, P109S, L112Q
# [16] = target: T16, PUM1 PUF domain R3-VRG C935V + Q939G (Homo sapiens) (UniProt Q14671)
# T16 sequence: T1 sequence with A108V, P109R, L112G
# [17] = target: T17, PUM1 PUF domain R3-VRL C935V + Q939L (Homo sapiens) (UniProt Q14671)
# T17 sequence: T1 sequence with A108V, P109R
# [18] = target: T18, PUM1 PUF domain R3-VRS C935V + Q939S (Homo sapiens) (UniProt Q14671)
# T18 sequence: T1 sequence with A108V, P109R, L112S
# [19] = target: T19, PUM1 PUF domain R3-YRF C935Y + Q939F (Homo sapiens) (UniProt Q14671)
# T19 sequence: T1 sequence with A108Y, P109R, L112F
# [20] = target: T20, PUM1 PUF domain R3-YRS C935Y + Q939S (Homo sapiens) (UniProt Q14671)
# T20 sequence: T1 sequence with A108Y, P109R, L112S
sequence,measurement,setting,value
GGCUAGAACUAGUGGAUCCCCCGGCGCCCGGCGGCUCGAGCCCGGGUAAGUGUAAUUAGUCUGCAUGCCGCCGGGCGCCAUGCCUGCAGGUCGACUCUAGAAAACAUG,binding signal (log2 enrichment (interaction score)),[1],0.05
same,binding signal (log2 enrichment (interaction score)),[2],0.07
same,binding signal (log2 enrichment (interaction score)),[3],0.21
same,binding signal (log2 enrichment (interaction score)),[4],-0.16
same,binding signal (log2 enrichment (interaction score)),[5],0.28
same,binding signal (log2 enrichment (interaction score)),[6],-0.04
same,binding signal (log2 enrichment (interaction score)),[7],0.1
same,binding signal (log2 enrichment (interaction score)),[8],0.27
same,binding signal (log2 enrichment (interaction score)),[9],-0.16
same,binding signal (log2 enrichment (interaction score)),[10],-0.2
same,binding signal (log2 enrichment (interaction score)),[11],-0
same,binding signal (log2 enrichment (interaction score)),[12],-0.01
same,binding signal (log2 enrichment (interaction score)),[13],-0.07
same,binding signal (log2 enrichment (interaction score)),[14],-0.21
same,binding signal (log2 enrichment (interaction score)),[15],-0.16
same,binding signal (log2 enrichment (interaction score)),[16],-0.39
same,binding signal (log2 enrichment (interaction score)),[17],-0.21
same,binding signal (log2 enrichment (interaction score)),[18],-0.06
same,binding signal (log2 enrichment (interaction score)),[19],0.21
same,binding signal (log2 enrichment (interaction score)),[20],-0

# Part of the list above in another layout:
sequence	measurement	setting	value
GGCUAGAACUAGUGGAUCCCCCGGCGCCCGGCGGCUCGAGCCCGGGUAAGUGUAAUUAGUCUGCAUGCCGCCGGGCGCCAUGCCUGCAGGUCGACUCUAGAAAACAUG	binding signal (log2 enrichment (interaction score))	[5]	0.28
same	binding signal (log2 enrichment (interaction score))	[9]	-0.16
same	binding signal (log2 enrichment (interaction score))	[10]	-0.2
same	binding signal (log2 enrichment (interaction score))	[16]	-0.39
same	binding signal (log2 enrichment (interaction score))	[17]	-0.21
